From US20200222474A1, “COMPOSITIONS AND METHODS FOR INCREASING PHYTOCHEMICAL BIOAVAILABLITY AND BIOACTIVITY” (North Carolina State University, priority 2017, published 2020)
Further values from the same series stand in other lists.

System: L. acidophilus NCFM
Assay: RNA-seq transcriptional analysis of L. acidophilus NCFM growing on plant glycosides
Assay type: cell-based, Lactobacillus acidophilus
[1] = LBA1974 Pyruvate oxidase, COG EH
[2] = gene LBA0863 (Hypothetical protein)
[3] = gene LBA0878 (Hypothetical protein)
[4] = gene LBA0888 (Hypothetical protein)
[5] = gene LBA0987 (Hypothetical protein)
[6] = gene LBA1019 (Mucus binding protein)
[7] = gene LBA1020 (Mucus binding protein)
[8] = gene LBA1227 (Hypothetical protein)
[9] = gene LBA1370 (Putative bacteriophage-related protein)
[10] = gene LBA1409 (Hypothetical protein LBA1409)
[11] = gene LBA1460 (Mucus binding protein precursor)
[12] = gene LBA1461 (Putative regulator)
[13] = gene LBA1539 (Hypothetical protein)
[14] = gene LBA1608 (Hypothetical protein)
[15] = gene LBA1612 (Fibrinogen-binding protein)
[16] = gene LBA1652 (Mucus binding protein precursor Mub)
[17] = gene LBA1655 (Hypothetical protein)
[18] = gene LBA1686 (Hypothetical protein)
[19] = gene LBA1693 (Hypothetical protein)
[20] = gene LBA1694 (Hypothetical protein)
[21] = gene LBA1709 (Mucus binding protein precursor Mub)
[22] = gene LBA1784 (Hypothetical protein)
[23] = gene LBA1786 (Hypothetical protein)
[24] = gene LBA1791 (Hypothetical protein)
[25] = gene LBA1792 (Hypothetical protein)
[26] = gene LBA1794 (Gassericin K7 B accessory protein)
[27] = gene LBA1797 (Hypothetical protein)
[28] = gene LBA1801 (Hypothetical protein)
[29] = gene LBA1802 (Hypothetical protein)
[30] = gene LBA1803 (Hypothetical protein.)
[31] = gene LBA1804 (Hypothetical protein)
[32] = gene LBA1805 (Hypothetical protein)
[33] = gene without printed locus tag, last line of Table 5 (Hypothetical protein)

SMILES: OC[C@H]1O[C@@H](O[C@H]2[C@H](O)[C@@H](O)[C@@H](O)O[C@@H]2CO)[C@H](O)[C@@H](O)[C@H]1O [Lac]
- Transcripts per million (rpm) (LBA1434 Dihydroxyacetone kinase, COG G): 36.8 rpm
- Log2 differential normalized TPM ratio compared to glucose [1]: 2.4
- Transcripts per million (rpm) [1]: 446.4 rpm
- Log2 differential normalized TPM ratio compared to glucose (gene LBA0802 (Hypothetical protein)): 0.3
- Log2 differential normalized TPM ratio compared to glucose [2]: 0.8
- Transcripts per million (rpm) [2]: 86.1 rpm
- Log2 differential normalized TPM ratio compared to glucose [3]: 1.1
- Transcripts per million (rpm) [3]: 8.4 rpm
- Log2 differential normalized TPM ratio compared to glucose [4]: 1
- Transcripts per million (rpm) [4]: 64 rpm
- Log2 differential normalized TPM ratio compared to glucose [5]: 2.9
- Transcripts per million (rpm) [5]: 359.5 rpm
- Log2 differential normalized TPM ratio compared to glucose [6]: 1
- Transcripts per million (rpm) [6]: 26.1 rpm
- Log2 differential normalized TPM ratio compared to glucose [7]: 0.1
- Transcripts per million (rpm) [7]: 153.9 rpm
- Log2 differential normalized TPM ratio compared to glucose [8]: 0.5
- Transcripts per million (rpm) [8]: 99.5 rpm
- Log2 differential normalized TPM ratio compared to glucose [9]: 0.5
- Transcripts per million (rpm) [9]: 54.3 rpm
- Log2 differential normalized TPM ratio compared to glucose [10]: 0.6
- Transcripts per million (rpm) [10]: 7 rpm
- Log2 differential normalized TPM ratio compared to glucose [11]: 4.2
- Transcripts per million (rpm) [11]: 186.9 rpm
- Log2 differential normalized TPM ratio compared to glucose [12]: 4.9
- Transcripts per million (rpm) [12]: 168.9 rpm
- Log2 differential normalized TPM ratio compared to glucose [13]: 2.7
- Transcripts per million (rpm) [13]: 160.7 rpm
- Log2 differential normalized TPM ratio compared to glucose [14]: 0.7
- Transcripts per million (rpm) [14]: 34.4 rpm
- Log2 differential normalized TPM ratio compared to glucose (gene LBA1611 (Surface protein)): −0.5
- Transcripts per million (rpm) (gene LBA1611 (Surface protein)): 119.5 rpm
- Log2 differential normalized TPM ratio compared to glucose [15]: 0.1
- Transcripts per million (rpm) [15]: 144.9 rpm
- Log2 differential normalized TPM ratio compared to glucose (gene LBA1633 (Surface protein)): 1.2
- Transcripts per million (rpm) (gene LBA1633 (Surface protein)): 17.3 rpm
- Log2 differential normalized TPM ratio compared to glucose [16]: 0.6
- Transcripts per million (rpm) [16]: 17.8 rpm
- Log2 differential normalized TPM ratio compared to glucose [17]: 0.3
- Transcripts per million (rpm) [17]: 5.1 rpm
- Log2 differential normalized TPM ratio compared to glucose [18]: −0.3
- Transcripts per million (rpm) [18]: 148.3 rpm
- Log2 differential normalized TPM ratio compared to glucose [19]: 1
- Transcripts per million (rpm) [19]: 220.4 rpm
- Log2 differential normalized TPM ratio compared to glucose [20]: 1
- Transcripts per million (rpm) [20]: 171.1 rpm
- Log2 differential normalized TPM ratio compared to glucose [21]: 0.5
- Transcripts per million (rpm) [21]: 3.7 rpm
- Log2 differential normalized TPM ratio compared to glucose [22]: 2
- Transcripts per million (rpm) [22]: 170.8 rpm
- Log2 differential normalized TPM ratio compared to glucose [23]: 2.2
- Transcripts per million (rpm) [23]: 111.3 rpm
- Log2 differential normalized TPM ratio compared to glucose [24]: 2.2
- Transcripts per million (rpm) [24]: 84.6 rpm
- Log2 differential normalized TPM ratio compared to glucose [25]: 2.3
- Transcripts per million (rpm) [25]: 73.8 rpm
- Log2 differential normalized TPM ratio compared to glucose [26]: 2.2
- Transcripts per million (rpm) [26]: 70.8 rpm
- Log2 differential normalized TPM ratio compared to glucose [27]: 4.8
- Transcripts per million (rpm) [27]: 3776.4 rpm
- Log2 differential normalized TPM ratio compared to glucose [28]: 2.5
- Transcripts per million (rpm) [28]: 23.8 rpm
- Log2 differential normalized TPM ratio compared to glucose [29]: 2.5
- Transcripts per million (rpm) [29]: 44.3 rpm
- Log2 differential normalized TPM ratio compared to glucose [30]: 3
- Transcripts per million (rpm) [30]: 109.5 rpm
- Log2 differential normalized TPM ratio compared to glucose [31]: 3.7
- Transcripts per million (rpm) [31]: 246.4 rpm
- Log2 differential normalized TPM ratio compared to glucose [32]: 3.9
- Transcripts per million (rpm) [32]: 452.7 rpm
- Log2 differential normalized TPM ratio compared to glucose [33]: 0.2
- Transcripts per million (rpm) [33]: 21.6 rpm
